Data taken from patent US9499484B2, “Indole, indoline derivatives, compositions comprising them and uses thereof” (priority 2012, dated 2016).
Counter-ions that a name gives are not always drawn. Like-named read-outs stand apart in the source and are kept apart here. Some results were stated once for a whole list of compounds, not compound by compound.

What was measured:
BuChE = target: T1, BuChE (UniProt P81908); assay type: biochemical, human or equine serum
T1 construct: 120 min incubation; BuChE IC50
Method: B. Measurement of Acetylcholinesterase (AChE) and Butylcholinesterase (BuChE) Inhibition In Vitro
The enzyme was incubated at 37° C. with 6-10 concentrations of the compounds tested and samples were collected at 15, 30, 60 and 120 min Aliquots were transferred to an Elisa multiscan microplate reader (Labsystems) at 15-60 sec time intervals for the determination of residual AChE activity, with Ascent PC software. […] The % inhibition of AChE by each concentration was calculated by comparison with the activity of the enzyme in the absence of drug. […] BuChE-inhibitory activity was determined as described above using BuChE (Sigma Israel) with butylthiocholine iodide (BuTh) 0.075M as a substrate.

NO, RAW 264.7 cells = assay: NO reduction in LPS-stimulated RAW 264.7 macrophages; assay type: cell-based, mouse; conditions: at concentrations ranging from 1 pM-10 μM
[1] = system: rat cardiac myoblasts (H9c2); assay: Protection against H2O2-induced cell death in cardiomyocytes, Alamar Blue; assay type: cell-based; conditions: at concentrations ranging from 100 pM-1 μM
Method: C. Measurement of Protective Activity Against Oxidative Stress in Cell Cultures
Compounds of the invention were tested for their potential to protect against cell death induced by oxidative stress in a cell line derived from rat cardiac myoblasts (H9c2) (Hescheler et al., 1991). Cells were cultured in Dulbecco's Modified Eagle's Medium (DMEM), 4500 mg/L D-glucose with 10% foetal calf serum (FCS), 10000 U/mL penicillin, […] streptomycin and 25 μg/mL Amphotericin B at 37° C. with 95% air and 5% CO2. One day prior to the measurement, cells were seeded in 96 well-plates at a density of 5,000 cells/well and incubated with 100 μM H2O2 for 1 h. […] Cells were incubated with different compounds of the invention in several concentrations ranging from 0.0001-100 μM, for 1, 4 or 7 h prior to addition of H2O2. Cell viability was measured by means of Alamar Blue (AbD Serotec, BUF012A). In order to compare the protective effect of the compounds this degree of cell death was normalized to 100% in each experiment. The effect of the drugs is expressed as percent reduction of this value.

[2] = system: NO release, LPS-stimulated mouse microglial cells; assay: NO release from LPS-stimulated primary microglial cells; assay type: cell-based; conditions: in concentrations ranging from 10 nM-10 μM
[3] = Fall in body temperature in rats; assay type: in vivo, rat
Method: F. Temperature Measurements in Rats
Monitoring body temperature at different times after drug administration enables one to assess in vivo both the extent of drug effect and its duration in the same group of rats. Test compounds or saline were administrated by ip injection or by gavage to female Wistar rats aged 3-4 months. Body temperature was measured rectally by means of a thermocouple probe, before and every 30 min after drug administration until this returned to pre-injection values. The change in body temperature induced by the drug was computed for each dose at each time point in comparison with the temperature prior to drug injection.

Compound | inhibit the release of NO from LPS-stimulated RAW 264.7 cells (NO, RAW 264.7 cells) | reduced apoptosis induced by H2O2 in cardiomyocytes [1] | further results
CCN(C)C(=O)Oc1ccc2c(CCCN)c[nH]c2c1.Cl [AN-911, 3-(6-((Ethyl(methyl)carbamoyl)oxy)-1H-indol-3-yl)propan-1-aminium chloride] |  |  | IC50 (BuChE; read-out: BuChE IC50; most potent BuChE inhibitors): 100 to 110 nM
CCN(C)C(=O)Oc1ccc2c(c1)NCC2CCC(=O)OC.CS(=O)(=O)O (stereo not shown) [AN-680D, Methyl 3-(6-((ethyl(methyl)carbamoyl)oxy)indolin-3-yl)propanoate methanesulfonate] | more than 30% |  | 
CCN(C)C(=O)Oc1cccc2c1C(CCC(=O)O)CN2C (stereo not shown) [AN-699, 3-(4-((Ethyl(methyl)carbamoyl)oxy)-1-methylindolin-3-yl)propanoic acid hydrochloride] |  | more than 50% | 
O=C(O)CCC1CNc2cc(O)ccc21 (stereo not shown) [AN-848, 3-(6-Hydroxyindolin-3-yl) propanoic acid hydrochloride] |  |  | reduced NO release from LPS-stimulated mouse microglial cells [2]: more than 30%
CCN(C)C(=O)Oc1ccc2c(c1)NCC2CCC(=O)O (stereo not shown) [AN-681, 3-(6-(Ethyl(methyl)carbamoyloxy)indolin-3-yl) propanoic acid hydrochloride] | more than 30% | more than 50% | reduced NO release from LPS-stimulated mouse microglial cells [2]: more than 30%
CCN(C)C(=O)Oc1cccc2c1C(CCC(=O)OC)CN2 (stereo not shown) [AN-827, 3-(2-(Methoxycarbonyl)ethyl)indolin-4-yl ethylmethylcarbamate hydrochloride] |  | more than 50% | 
CCN(C)C(=O)Oc1cccc2c1C(CCN)CN2 (stereo not shown) [AN-890, 3-(2-Aminoethyl)indolin-4-yl ethyl(methyl)carbamate dihydrochloride] | more than 30% |  | 
CCCCN(C)C(=O)Oc1cccc2c1C(CCC(=O)OC)CN2C (stereo not shown) [AN-667, 3-(2-(Methoxycarbonyl)ethyl)-1-methylindolin-4-yl butylmethylcarbamate hydrochloride] |  | more than 50% | 
CCN(C)C(=O)Oc1cccc2[nH]cc(CCN(C)C)c12 [AN-1252, 3-(2-(Dimethylamino)ethyl)-1H-indol-4-yl ethyl(methyl)carbamate hydrochloride] |  |  | IC50 (BuChE; read-out: BuChE IC50): 100 to 110 nM
Ethyl 3-(5- ((ethyl(methyl)carbamoyl) oxy)-1H- benzo[d]imidazol-1- yl)propanoate hydrochloride Ethyl 3-(6- ((ethyl(methyl)carbamoyl) oxy)-1H- benzo[d]imidazol-1- yl)propanoate hydrochloride [AN-1257] |  |  | IC50 (BuChE; most potent BuChE inhibitors; read-out: BuChE IC50): 100 to 110 nM
CCN(C)C(=O)Oc1cccc2c1C(CCC(=O)OC)CN2.CS(=O)(=O)O (stereo not shown) [AN-867, 4-(Ethyl(methyl)carbamoyloxy)-3-(3-methoxy-3-oxopropyl)indolinium methanesulfonate] | more than 30% |  | 
COC(=O)CCC1CNc2cccc(O)c21 (stereo not shown) [AN-832, Methyl 3-(4-hydroxyindolin-3-yl)propanoate hydrochloride] | more than 30% | more than 50% | reduced NO release from LPS-stimulated mouse microglial cells [2]: more than 30%
CCN(C)C(=O)Oc1ccc2c(c1)NCC2CCC(=O)OC.O=C(O)CC(O)(CC(=O)O)C(=O)O (stereo not shown) [AN-878, 6-(Ethyl(methyl)carbamoyloxy)-3-(3-methoxy-3-oxopropyl)indolinium citrate] | more than 30% |  | 
CCN(C)C(=O)Oc1cccc2c1CCN2 [AN-854, Indolin-4-yl ethyl(methyl)carbamate hydrochloride] |  | more than 50% | lowered body temperature ([3]; female rats, seen at AN-854 50 μmoles/kg, AN-872C 200 μmoles/kg, AN-680D 100 μmoles/kg): more than 2 °C; equivalent inhibition in ChE in the hypothalamus ([3]; inferred from temperature fall >2 °C (Wang et al., 2001)): more than 74%
CCN(C)C(=O)Oc1cccc2c1C(CCC(=O)O)CN2 (stereo not shown) [AN-850, hydrochloride] |  | more than 50% | 
COC(=O)CCC1CNc2cc(OC(=O)N(C)c3ccc(OC)cc3)ccc21 (stereo not shown) [AN-685, Methyl 3-(6-((4-methoxyphenyl)(methyl)carbamoyloxy)indolin-3-yl)propanoate hydrochloride] | more than 30% |  | 
O=C(O)CCC1CNc2cccc(O)c21 (stereo not shown) [AN-834, 3-(4-hydroxyindolin-3-yl)propanoic acid hydrochloride] |  |  | reduced NO release from LPS-stimulated mouse microglial cells [2]: more than 30%
CCCCN(C)C(=O)Oc1ccc2c(c1)NCC2CCC(=O)OC (stereo not shown) [AN-677, 3-(2-(Methoxycarbonyl)ethyl)-1-indoline-6-yl butylmethylcarbamate hydrochloride] |  | more than 50% | 
COC(=O)CCC1CNc2cccc(OC(=O)N(C)c3ccc(OC)cc3)c21 (stereo not shown) [AN-819, 3-(3-methoxy-3-oxopropyl)-4-(((4-methoxyphenyl)(methyl)carbamoyl)oxy) indolin-1-ium hydrochloride] | more than 30% |  | 
COc1ccc(N(C)C(=O)Oc2cccc3c2C(CCC(=O)O)CN3)cc1 (stereo not shown) [AN-821, hydrochloride] |  | more than 50% | 
CCN(C)C(=O)Oc1cccc2c1C(CCC(=O)O)CN2.CS(=O)(=O)O (stereo not shown) [AN-894, 3-(4-((Ethyl(methyl)carbamoyl)oxy)indolin-3-yl)propanoic acid methanesulfonate] | more than 30% |  | 
CCN(C)C(=O)Oc1ccc2c(c1)NCC2CCC(=O)OC (stereo not shown) [AN-680, 3-(2-(Methoxycarbonyl)ethyl)-1-indoline-6-yl ethylmethylcarbamate hydrochloride] |  | more than 50% | 
